Measurements from PubChem BioAssay AID504834 (National Center for Advancing Translational Sciences (NCATS), 2011).
Hit rate of the full screen: of about 320,000 compounds, about 22,000 (6.9%) were called active. Inconclusive results, whose numbers are uncertain, are shown with a selection of clear calls. Calls follow the shape of the dose curve; as a rule, active = well fitted inhibition curve with a large enough effect; inconclusive = small, poorly fitted or top-dose-only effect, or another doubt; inactive = no such curve, though single readings can be large or run the other way. A potency beside an inconclusive call is a rough fit, not a confirmed value.

assay: Primary qHTS for delayed death inhibitors of the malarial parasite plastid, 96 hour incubation; conditions: P. falciparum luciferase reporter growth; series mostly up to 28.7 µM; activity change, negative = inhibition: at the top concentration
Outline: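 P. falciparum expressing integrated firefly luciferase, in erythrocytes at 2% hematocrit, 0.05% parasitemia, incubated with compounds 96 h at 37 C, 5% CO2. Growth inhibition read as loss of luminescence; two-generation exposure targets delayed-death apicoplast inhibitors.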
% is scaled to controls: 0 for no effect and ±100 for the full control effect; potency is read from the fitted curve at half-maximal effect.

Compound | Potency | activity change, negative = inhibition
COCCCNCCOc1ccc(C(C)(C)c2ccccc2)cc1 | inconclusive: 18.5 µM [inhibitor, single point] | –
CN(Cc1ccc2ccccc2c1)C(=O)c1ccc(C(F)(F)F)cc1 | – | inactive: 9.76%
C#CCNC(=O)C1=C[C@@H](c2cn(C(C)=O)c3ccccc23)C[C@@H](OCc2ccc(CO)cc2)O1 | active: 6.57 µM | –
O=C(Nc1c(Cl)cccc1Cl)C1CCN(C(=O)c2cccs2)CC1 | – | inactive: 9.76%
CC(C)c1cccc(OCCN2CCCC2)c1 | active: 10.4 µM | –
CC(C)[C@H](NC(=O)[C@@H]1Cc2ccccc2CN1C(=O)OC(C)(C)C)C(=O)NC1CCCC1 | inconclusive: 10.4 µM [inhibitor, single point] | –
Cc1ccc(C)c(OCCC(=O)Nc2ccc(S(=O)(=O)N3CCCC3)cc2)c1 | active: 9.28 µM | –
Cc1ccc(OCCCC(=O)Nc2nc3ccccc3[nH]2)cc1 | inconclusive: 3.29 µM [inhibitor, single point] | –
O=C(CSc1nnc(-c2ccccc2)n1-c1ccc(Cl)cc1)NC1CCS(=O)(=O)C1 (stereo not drawn) | inconclusive: 4.15 µM [inhibitor, single point] | –
CC(=O)N1c2ccccc2N(Cc2ccc([N+](=O)[O-])cc2)C(=O)C1(C)C | inconclusive: 7.38 µM [inhibitor, partial curve, poor fit] | –
O=C(NCc1ccco1)c1cc2cc(Br)ccc2o1 | inconclusive: 18.5 µM [inhibitor, single point] | –
O=C(Cn1cnc2c(nnn2Cc2ccccc2)c1=O)N1CCN(c2ccccc2)CC1 | inconclusive: 13.1 µM [inhibitor, partial curve] | –
O=[N+]([O-])c1ccc(-c2cnc(SCc3ccccc3Cl)[nH]2)cc1 | inconclusive: 10.4 µM [inhibitor, single point] | –
CCCC1CCc2[nH]nc(C(=O)NN)c2C1 (stereo not drawn) | – | inactive: 38.9%
Cc1sc(NC(=O)CCCC(=O)O)c(C(N)=O)c1-c1ccccc1 | – | inactive: 7.45%
COc1ccccc1C(=O)Nc1ccc2c(c1)CN(C(=O)CSC)CC2 | inconclusive: 10.4 µM [inhibitor, single point] | –
O=C(Cc1cccc(NC(=O)C2CCCN(C(=O)CCc3ccccc3)C2)c1)Nc1cccc(C(=O)N2CCCC2)c1 (stereo not drawn) | inconclusive: 1.85 µM [inhibitor, full curve] | –
CC1CCN(S(=O)(=O)c2ccc3c(c2)N(CC(=O)NCCCOC(C)C)C(=O)CS3)CC1 | inconclusive: 18.5 µM [inhibitor, single point] | –
C[C@@H](NC(=O)Cn1ccc(N)nc1=O)c1cccc2ccccc12 | – | inactive: 7.52%
CCOC(=O)c1ccc(NC(=O)CSc2nnc(COc3ccccc3OC)n2CC)cc1 | inconclusive: 11.7 µM [inhibitor, single point] | –
C=CCOc1cccc(/C=C2\C(=O)N(Cc3ccc(C)cc3)C(C)=C2C(=O)OC)c1 | active: 6.57 µM | –
NNC(=O)c1ccc(Cn2cc(Cl)cn2)cc1 | inconclusive: 0.37 µM [inhibitor, partial curve, poor fit] | –
Cc1[nH]c(=O)[nH]c1C(=O)CCCCC(=O)OCC(=O)Nc1ccccn1 | – | inactive: 1.11%

Single entries from the entries so far.
Potency, CC1CCN(S(=O)(=O)c2ccc3c(c2)N(CC(=O)NCCCOC(C)C)C(=O)CS3)CC1 is entered as inconclusive: 18.5 µM [inhibitor, single point]
Potency, O=C(Cn1cnc2c(nnn2Cc2ccccc2)c1=O)N1CCN(c2ccccc2)CC1 is entered as inconclusive: 13.1 µM [inhibitor, partial curve]

Further compounds follow:

Compound | Potency | activity change, negative = inhibition
O=C(Nc1nc2ccc([N+](=O)[O-])cc2s1)c1c(F)cccc1F | inconclusive: 0.586 µM [inhibitor, full curve, poor fit] | –
O=C(N/N=C/c1ccccc1Cl)c1[nH]c2ccc(Br)cc2c1-c1ccccc1 | inconclusive: 18.5 µM [inhibitor, single point] | –
Cn1c(=O)c2nnn(/N=C(\c3ccccc3)C3CC3)c2n(C)c1=O | inconclusive: 18.5 µM [inhibitor, single point] | –
COc1ccc(N=C2SC(C(=O)N3CCN(c4ccccc4)CC3)CC(=O)N2C)cc1 (stereo not drawn) | inconclusive: 5.22 µM [inhibitor, partial curve, poor fit] | –
CC(C)(C)c1ccc(C(=O)NN=C2CCCC2)cc1 | – | inactive: 9.89%
O=C(Nc1ccc(Cl)cc1F)C1CCN(S(=O)(=O)c2cccc3nonc23)CC1 | inconclusive: 16.5 µM [inhibitor, single point] | –
CCOC(=O)[C@H]1[C@H]2COc3ccc(C)cc3[C@@H]2N2C(=O)c3ccc(F)cc3NC(=O)[C@@]12C | inconclusive: 1.65 µM [inhibitor, partial curve, poor fit] | –
CC(=O)c1cccc(NC(=O)Cc2ccc3c(c2)CCCC3)c1 | – | inactive: 9.23%
Cc1csc(SC(C)C(=O)Nc2ccc(S(=O)(=O)N3CCCC3)cc2)n1 (stereo not drawn) | inconclusive: 18.5 µM [inhibitor, single point] | –
CCCc1cc(=O)[nH]c(SCC(=O)N2CCN(S(=O)(=O)c3ccc(C)cc3)C2)n1 | active: 13.1 µM | –
O=C1c2cccc(OCC(=O)N3N=C(c4cccs4)CC3c3ccc(F)cc3)c2CCN1Cc1cccnc1 (stereo not drawn) | inconclusive: 2.33 µM [inhibitor, full curve, poor fit] | –
Cc1cccc(N(C(=O)CCC(=O)Nc2ccccn2)C(C(=O)NC(C)C)c2ccc(O)cc2)c1 (stereo not drawn) | inconclusive: 0.104 µM [inhibitor, full curve, poor fit] | –
O=S(=O)(NCCCN1CCN(c2ccccc2F)CC1)c1cccc2cccnc12 | inconclusive: 1.85 µM [inhibitor, full curve] | –
O=C(O)c1ccccc1C(=O)NCC(O)COc1ccc(Cl)cc1 (stereo not drawn) | – | inactive: 45.7%
CCOC(=O)N1CCC(N2Cc3cccc(C(=O)NCc4ccc(C)cc4)c3C2=O)CC1 | inconclusive: 13.1 µM [inhibitor, single point] | –
O=C(Cn1cnc2sc3c(c2c1=O)CCCC3)NCCCC(=O)N1CCC2(CC1)OCCO2 | inconclusive: 11.7 µM [inhibitor, partial curve] | –
Cc1ccc(C(=O)C2=C(O)C(=O)N(Cc3ccco3)C2c2cccc(Br)c2)o1 (stereo not drawn) | – | inactive: 50%
CCc1ccc(CN2CCN(Cc3ccc(SC)cc3)CC2)cc1 | – | inactive: 8.59%
COc1ccc(/C=C/C(=O)NCCCc2ccccc2)cc1OC | inconclusive: 0.185 µM [inhibitor, full curve, poor fit] | –
COc1cccc(C2/C(=C(\O)c3c(C)nc4c(C)cccn34)C(=O)C(=O)N2CCCN(C)C)c1OC (stereo not drawn) | inconclusive: 6.57 µM [inhibitor, partial curve, poor fit] | –
Cc1sc2ncnc(NCCCN3CCCC3=O)c2c1C | – | inactive: -11.2%
O=C(COC(=O)c1cccs1)Nc1cccc(S(=O)(=O)NC2=NCCCCC2)c1 | inconclusive: 0.0738 µM [inhibitor, partial curve, poor fit] | –
CN(C)C(=O)c1ccc(-c2cc(C(F)(F)F)n(C)n2)s1 | – | inactive: 21.9%

Compound | Potency | activity change, negative = inhibition
COc1ccccc1N(C(=O)c1cncc(Br)c1)c1nc(-c2ccc(C)cc2)cs1 | active: 7.38 µM | –
CC(C)C[C@H](NC(=O)c1nc[nH]c1C(=O)N1CCc2ccccc2C1)C(=O)OCc1ccccc1 | – | inactive: 2.37%
CCC/C(O)=C1\C(=O)CC(C)(C)CC1=Nc1ccccc1O | – | inactive: -18.6%
S=c1nccc(-c2cccs2)[nH]1 | – | inactive: 19.2%
CN(n1cnc2ccccc2c1=O)S(C)(=O)=O | inconclusive: 4.15 µM [inhibitor, partial curve, poor fit] | –
O=C(Nc1ccc(Br)cc1)C1CCCN(C2=NS(=O)(=O)c3ccccc32)C1 (stereo not drawn) | inconclusive: 6.57 µM [inhibitor, partial curve] | –
Cc1cccc(NC(=S)N(CCCN2CCOCC2)Cc2ccccn2)c1 | inconclusive: 13.1 µM [inhibitor, single point] | –
CC(=O)O[C@@H]1[C@H](OC(=O)CC(C)C)c2c(ccc3ccc(=O)oc23)OC1(C)C | inconclusive: 18.5 µM [inhibitor, single point] | –
CCOC(=O)c1c(NC(=O)CN2C(=O)NC3(CCCCC3C)C2=O)sc(C)c1C (stereo not drawn) | inconclusive: 11.7 µM [inhibitor, single point] | –
C=CCn1c(SCc2c(C(=O)OC)sc(N)c2C(=O)OC)nnc1-c1ccc(Cl)cc1 | active: 3.29 µM | –
COc1ccc(C(=O)C2CCCN(Cc3cccn3-c3ccccn3)C2)c(C)c1 (stereo not drawn) | – | inactive: -17.5%
C=CCNC(=S)N1CCC(C(=O)c2ccc3c(c2)OCCO3)CC1 | inconclusive: 2.08 µM [inhibitor, full curve, poor fit] | –
CCN(CC)S(=O)(=O)c1ccc(N2CCN(C)CC2)c(NC(=O)c2cc(=O)c3ccccc3o2)c1 | – | inactive: -16.9%
COc1ccccc1CC(NC(C)=O)C(=O)NC1CCN(C(=O)c2cccc(Cl)c2)CC1 (stereo not drawn) | inconclusive: 11.7 µM [inhibitor, partial curve, poor fit] | –
COc1ccc(OC)c(-c2csc(N(Cc3ccco3)C(=O)c3ccco3)n2)c1 | inconclusive: 0.828 µM [inhibitor, full curve, poor fit] | –
O=C(N1CCCC1)N1CCN(c2ncnc3c(-c4ccc(Cl)cc4)nsc23)CC1 | active: 1.85 µM | –
Oc1cccc(/C=N/Nc2ncnc3c2ncn3Cc2ccccc2)c1 | inconclusive: 0.928 µM [inhibitor, full curve] | –
CN(CC(=O)Nc1c(Cl)cccc1Cl)C(=O)c1cc2ccccc2cc1O | inconclusive: 18.5 µM [inhibitor, single point] | –
CN(C)S(=O)(=O)c1ccc(C(=O)Nc2nc(-c3cc4ccccc4o3)cs2)cc1 | inconclusive: 14.7 µM [inhibitor, partial curve] | –
O=S1(=O)CC(O)C(N2CCCCC2)C1 (stereo not drawn) | inconclusive: 16.5 µM [inhibitor, single point] | –
Cc1cc(C)cc(N2C(=O)NC(=O)/C(=C\C=C\c3ccco3)C2=O)c1 | – | inactive: 30.7%
Cc1cccc(C)c1NC(=O)CN(C)CC(=O)Nc1ccc(C#N)c(Cl)c1 | – | inactive: 49.5%
